Results: PubChem BioAssay AID624246 (National Center for Advancing Translational Sciences (NCATS), 2012)
In all, about 370,000 compounds went through this assay and about 100 (0.027%) were called active. This list was built around the results that the source calls inconclusive (neither active nor inactive); the mix of calls is not that of the screen. Calls follow the shape of the dose curve; as a rule, active = well fitted inhibition curve with a large enough effect in the polarisation, with a control signal flat; inconclusive = small, poorly fitted or top-dose-only effect, or effect the other way, or a change in a side signal; inactive = no such curve, though single readings can be large or run the other way; the % refers to the polarisation. Where the call is inconclusive, the potency comes from a doubtful curve fit. A note “side channel” means that the fit belongs to a control or component signal, not to the main read-out.
For FP activity, negative = inhibition in this document: % of control where 0% means no effect.
Potency is read from the fitted curve at half-maximal effect.

Sequences of proteins named here, by UniProt entry; tags and fusion partners are left off.
UniProt P11308, whole entry, looked up: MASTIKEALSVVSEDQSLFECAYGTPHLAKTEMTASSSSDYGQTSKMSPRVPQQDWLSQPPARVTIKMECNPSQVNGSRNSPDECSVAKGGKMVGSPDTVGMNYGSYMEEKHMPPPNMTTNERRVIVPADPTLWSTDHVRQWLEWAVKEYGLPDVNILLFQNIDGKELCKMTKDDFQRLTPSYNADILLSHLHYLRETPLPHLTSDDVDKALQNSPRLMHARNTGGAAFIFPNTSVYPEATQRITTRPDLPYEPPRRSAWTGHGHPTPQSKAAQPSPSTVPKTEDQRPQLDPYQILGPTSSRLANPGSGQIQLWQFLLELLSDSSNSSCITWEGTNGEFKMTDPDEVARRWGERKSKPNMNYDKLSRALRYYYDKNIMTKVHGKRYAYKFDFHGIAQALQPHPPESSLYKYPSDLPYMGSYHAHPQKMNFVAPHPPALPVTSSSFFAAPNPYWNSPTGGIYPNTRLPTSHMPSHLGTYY

The compounds below were run against Transcriptional regulator ERG (Homo sapiens) (UniProt P11308) (assay: qHTS for Small Molecule Inhibitors of the ERG Ets/DNA interaction). Conditions: fluorescence polarization, His-ERG Ets domain / labelled DNA; FP activity, negative = inhibition: at 76.9 µM (top of the series).
Procedure, shortened: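 His-tagged ERG Ets domain (1 uM in the protein solution; 300mM KCl, 50mM Tris-HCl, 1mM EDTA, 1mM DTT, pH 7.5) received compound, then a probe mix of 5 nM fluorescein-DNA and 100nM Texas-615-DNA. Fluorescence polarization was read for both dyes.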
With Cn1nnnc1SCCNCc1ccccc1Cl the Potency was inconclusive: 44.7 µM [quencher, side channel, partial curve, poor fit]. In the case of COc1ccc(-c2nnc(SCC(=O)NCCc3ccc(S(N)(=O)=O)cc3)o2)cc1OC, the Potency is reported as inconclusive: 39.8 µM [inhibitor, single point]. Cc1cc2nc(SCCOC(=O)Nc3cccc(Cl)c3)nc(C)c2cc1C was tested, and the Potency was inconclusive: 28.2 µM [quencher, side channel, single point]. O=C(/C=C/c1ccccc1)NCCc1nc2ccccc2[nH]1 was tested, and the Potency was inconclusive: 6.31 µM [inhibitor, partial curve, poor fit]. With O=C(NCc1cccs1)c1ccc([N+](=O)[O-])cc1 the Potency was inconclusive: 1 µM [inhibitor, full curve, poor fit]. In the case of O=C1c2ccccc2C(=O)c2c1oc(C(F)(F)F)c2C(=O)c1ccccc1, the “FP activity, negative = inhibition” value is reported as inactive: -1.2%. In the case of O=C(NC1CC1)C1CCN(S(=O)(=O)c2cc([N+](=O)[O-])ccc2Cl)CC1, the Potency is reported as inconclusive: 56.2 µM [inhibitor, partial curve, poor fit]. In the case of O=C(CN1C(=O)NC2(CCCC2)C1=O)Nc1nc2ccccc2s1, the Potency is reported as inconclusive: 11.2 µM [inhibitor, single point]. For COc1cc(CO)ccc1OCC(=O)Nc1cccc2ccccc12, the Potency was inconclusive: 3.55 µM [inhibitor, partial curve, poor fit]. In the case of CCC(Sc1nc2nccnc2c(=O)n1Cc1ccc(C)cc1)C(=O)NC1CCCCC1 (stereo unspecified), the Potency is reported as inconclusive: 50.1 µM [quencher, side channel, partial curve, poor fit]. In the case of FC(F)(F)c1cnc(/C=C/Nc2ccccc2Cl)c(Cl)c1, the “FP activity, negative = inhibition” value is reported as inactive: -0.633%. In the case of O=C(Nc1cccc(-c2ccc(N3CCCCC3)nn2)c1)C(F)(F)F, the “FP activity, negative = inhibition” value is reported as inactive: -6.92%. O=C(Nc1cccc(S(=O)(=O)Nc2ccc(Cl)cc2)c1)c1ccc(Cl)nc1 was tested, and the “FP activity, negative = inhibition” value was inactive: 0.327%. With COCCN1C=C2C(=O)C(C)(OC(=O)CCC(=O)OC)C(=O)C=C2C=C1C1CC1 (stereo unspecified) the Potency was inconclusive: 3.98 µM [inhibitor, full curve]. For Cc1cccc(OCC(=O)NCc2ccccc2)c1, the Potency was inconclusive: 28.2 µM [inhibitor, single point]. Cc1cccc(C#Cc2ccccc2)n1 was tested, and the “FP activity, negative = inhibition” value was inactive: 8.43%. With O=C(N/N=C/c1c[nH]c2ccccc12)c1cc(-c2ccc(-c3ccccc3)cc2)n[nH]1 the “FP activity, negative = inhibition” value was inactive: -2.75%. With CC(=O)N1CCc2c(sc3c2c(=O)n(CCc2ccccc2)c(=O)n3Cc2cccc(C)c2)C1 the “FP activity, negative = inhibition” value was inactive: 0.7%. With CC(=O)Oc1ccc(C(=O)Nc2ccccc2C(=O)Nc2ccc(C(=O)O)cc2)cc1 the Potency was inconclusive: 50.1 µM [inhibitor, partial curve, poor fit]. With COc1cc(NC(=O)COC(=O)CNC(=O)C2CCCCC2)cc(OC)c1 the Potency was inconclusive: 28.2 µM [inhibitor, single point]. With COc1ccc(CNCCC2(C(C)C)CCOC(C)(C)C2)cc1 (stereo unspecified) the Potency was inconclusive: 50.1 µM [inhibitor, partial curve, poor fit]. With N=C1S/C(=C\c2ccc(-c3ccccc3C(=O)O)o2)C(=O)N1c1ccc2c(c1)OCO2 the “FP activity, negative = inhibition” value was inactive: -7.85%. For Clc1ccc(CSc2nnc(-c3ccccn3)n2Cc2ccco2)c(Cl)c1, the “FP activity, negative = inhibition” value was inactive: 0.903%. COc1ccc(-c2cc(C(F)(F)F)n3nc(C(=O)N(C)Cc4ccccc4)cc3n2)cc1OC was tested, and the Potency was inconclusive: 11.2 µM [inhibitor, single point]. For CC(C)(C)c1ccc(C(=O)NCC(=O)OCC(=O)Nc2ccccc2[N+](=O)[O-])cc1, the Potency was inconclusive: 3.55 µM [inhibitor, partial curve, poor fit]. COCCn1c(=O)c2c(nc3n2CC(C)CN3CCc2ccccc2)n(C)c1=O (stereo unspecified) was tested, and the Potency was inconclusive: 11.2 µM [inhibitor, single point]. CC(C)c1ccc(NC(=O)CSc2nc(-c3ccccc3F)nc3nc[nH]c23)cc1 was tested, and the Potency was inconclusive: 28.2 µM [inhibitor, partial curve, poor fit]. For Oc1ccc(N=Cc2ccc(OCc3ccccc3)cc2)cc1, the Potency was active: 14.1 µM. In the case of OC(CNCc1ccc(F)cc1)(c1ccc(F)cc1)c1ccc(F)cc1, the “FP activity, negative = inhibition” value is reported as inactive: -4.2%. Cc1cc(C)nc(NN2C(=O)/C(=C/c3ccc(O)cc3)SC2=S)n1 was tested, and the Potency was inconclusive: 39.8 µM [fluorescent, side channel, partial curve, poor fit]. With CCC(=O)OC1(C)C(=O)C=C2C=C(C3CC3)OC=C2C1=O (stereo unspecified) the Potency was inconclusive: 39.8 µM [inhibitor, single point]. With COc1ccccc1CNC(=O)CCCn1nc(C)c2c(C)n(-c3ccccc3)nc2c1=O the “FP activity, negative = inhibition” value was inactive: -2.65%. For CN1C(=O)CC(N2CCN(CCN=CC3=C(O)CC(C)(C)CC3=O)CC2)C1=O (stereo unspecified), the Potency was inconclusive: 39.8 µM [quencher, side channel, single point]. In the case of COc1ccc(CCNC(=O)c2cccc(S(=O)(=O)N3CCCC3)c2)cc1, the Potency is reported as inconclusive: 7.94 µM [inhibitor, single point]. CC(=O)c1ccc(NC(=O)C(C)N(C)CC(=O)Nc2cccc(F)c2)cc1 (stereo unspecified) was tested, and the “FP activity, negative = inhibition” value was inactive: -4.35%. In the case of N#CC(c1nc2ccccc2nc1N1CCOCC1)S(=O)(=O)c1ccccc1 (stereo unspecified), the Potency is reported as inconclusive: 28.2 µM [quencher, side channel, partial curve, poor fit]. For COc1ccc(CC(=O)OCC(=O)c2ccc(OC)cc2)cc1, the Potency was inconclusive: 11.2 µM [inhibitor, single point]. In the case of CC(=O)N=c1c(C#N)cc2c(=O)n3ccccc3nc2n1Cc1ccccc1, the Potency is reported as inconclusive: 8.91 µM [inhibitor, single point]. In the case of S=c1[nH]nc(CSCCOc2ccccc2)o1, the Potency is reported as inconclusive: 31.6 µM [inhibitor, partial curve, poor fit]. With O=C(COC(=O)COc1ccc(Cl)cc1)NCCCc1ccccc1 the Potency was inconclusive: 25.1 µM [inhibitor, partial curve, poor fit]. COc1cnn(-c2cccc(Cl)c2)c(=O)c1Cl was tested, and the Potency was inconclusive: 12.6 µM [inhibitor, full curve, poor fit]. With CCN(CC)c1ccc(/C=C/C(=O)c2ccc(Br)cc2)cc1 the Potency was inconclusive: 31.6 µM [fluorescent, side channel, partial curve]. For O=C(OCC(=O)c1ccc[nH]1)c1ccc(Cl)c(Cl)c1, the “FP activity, negative = inhibition” value was inactive: 1.88%. With CCOC(=O)c1sc(NC(=O)Nc2ccccc2)cc1C the Potency was inconclusive: 39.8 µM [quencher, side channel, partial curve, poor fit]. CCn1ncc(/C=C/C(=O)c2ccccc2)c1C was tested, and the “FP activity, negative = inhibition” value was inactive: 21.5%. With CCn1nc(C)cc1C(=O)N1CCCC(N2CCN(Cc3ccc4c(c3)OCO4)CC2)C1 (stereo unspecified) the Potency was inconclusive: 11.2 µM [inhibitor, partial curve, poor fit]. With O=C(O)CCC(=O)NNC(=O)COc1cccc(Cl)c1 the “FP activity, negative = inhibition” value was inactive: -3.6%. For CCCCCNc1nc(NCCCO)c(C#N)c2c1CN(C)CC2, the Potency was inconclusive: 28.2 µM [inhibitor, partial curve, poor fit]. For CC(C)(C)C(=O)Cn1c(=N)n(Cc2ccccc2Cl)c2ccccc21, the “FP activity, negative = inhibition” value was inactive: 7.89%. COc1ccc(S(=O)(=O)NCCc2nnc3ccc(SCC(=O)Nc4cc(C)cc(C)c4)nn23)cc1 was tested, and the Potency was inconclusive: 31.6 µM [quencher, side channel, partial curve, poor fit]. For CCOC(=O)C1CCCN(C(=O)c2cc3cc(OC)c(OC)cc3[nH]2)C1 (stereo unspecified), the Potency was inconclusive: 31.6 µM [inhibitor, single point]. For COC(=O)Nc1ccc(S(=O)(=O)N2CCC(Cc3ccccc3)CC2)cc1, the Potency was inconclusive: 50.1 µM [quencher, side channel, single point]. In the case of COc1ccccc1N1C(=O)c2ccccc2NC1c1ccc(O)cc1 (stereo unspecified), the Potency is reported as inconclusive: 50.1 µM [inhibitor, single point]. For Oc1ccc(NCc2cccc(OCc3ccc(F)cc3)c2)cc1, the Potency was inconclusive: 28.2 µM [inhibitor, single point]. With COc1cc(C=O)ccc1OS(=O)(=O)c1ccc(NC(C)=O)cc1 the “FP activity, negative = inhibition” value was inactive: -4.57%. In the case of COCCN(C(=O)COC(=O)C1(c2ccccc2)CC1)c1c(N)n(CC(C)C)c(=O)[nH]c1=O, the Potency is reported as inconclusive: 11.2 µM [inhibitor, single point]. With CCOc1ccc(C(=O)N/N=C/c2ccc(SC)cc2)cc1 the “FP activity, negative = inhibition” value was inactive: -11%. With Cc1cc(C(=O)OCC(=O)NCc2ccccc2)c2ccccc2n1 the “FP activity, negative = inhibition” value was inactive: 15.5%. With O=C(NC(=S)Nc1nc2c(s1)CSc1ccccc1-2)c1ccccc1 the “FP activity, negative = inhibition” value was inactive: -1.82%. S=c1[nH]nc(-c2cccs2)n1/N=C/c1cn(-c2ccccc2)nc1-c1ccc(Cl)cc1 was tested, and the Potency was inconclusive: 25.1 µM [quencher, side channel, partial curve, poor fit]. In the case of COc1ccc(-c2csc(Nc3cccnc3)n2)cc1OC, the Potency is reported as inconclusive: 15.8 µM [quencher, side channel, partial curve, poor fit]. Cc1ccnn1-c1ccc(C(=O)OCC(=O)Nc2ccc(F)cc2)cc1 was tested, and the Potency was inconclusive: 5.62 µM [inhibitor, single point]. CCOc1ccc(Oc2cc(NC(=O)c3ccco3)cc([N+](=O)[O-])c2)cc1 was tested, and the “FP activity, negative = inhibition” value was inactive: -0.0813%. In the case of Cc1cc(=O)oc2cc(OCC(=O)Nc3ccc(O)c(C(=O)O)c3)ccc12, the Potency is reported as inconclusive: 50.1 µM [quencher, side channel, single point]. In the case of Oc1ccc(NCc2ccc(OCc3ccccc3)cc2)cc1, the Potency is reported as inconclusive: 35.5 µM [inhibitor, single point]. With O=C(COc1ccc(S(=O)(=O)N2CCOCC2)cc1Cl)NCCCn1ccnc1 the Potency was inconclusive: 44.7 µM [inhibitor, single point].
